Values of other authors in patent publication US20040204435A1, “Alternating treatment with topoisomerase I and topoisomerase II inhibitors” (priority 2003, published 2004).
Some of these results come from one statement about several compounds together.

The chains behind the UniProt entries cited, without tags or fusion partners. Residues count along the entry.
UniProt P02768, 25-609: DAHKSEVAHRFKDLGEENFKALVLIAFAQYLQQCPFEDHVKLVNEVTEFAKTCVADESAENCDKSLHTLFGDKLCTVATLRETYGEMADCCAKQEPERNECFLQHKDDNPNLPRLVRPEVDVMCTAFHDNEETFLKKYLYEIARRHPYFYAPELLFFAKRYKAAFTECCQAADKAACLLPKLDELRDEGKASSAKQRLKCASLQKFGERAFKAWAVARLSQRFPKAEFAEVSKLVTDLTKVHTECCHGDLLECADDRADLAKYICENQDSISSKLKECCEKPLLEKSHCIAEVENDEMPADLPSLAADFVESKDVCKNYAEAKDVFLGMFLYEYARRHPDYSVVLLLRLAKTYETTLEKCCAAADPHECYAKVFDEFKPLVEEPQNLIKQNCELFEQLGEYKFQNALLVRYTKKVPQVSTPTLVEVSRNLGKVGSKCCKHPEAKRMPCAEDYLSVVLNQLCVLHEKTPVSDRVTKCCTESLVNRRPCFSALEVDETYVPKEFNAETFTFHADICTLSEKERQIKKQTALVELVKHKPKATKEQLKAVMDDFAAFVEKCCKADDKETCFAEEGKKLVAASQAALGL

Molecular target: Human serum albumin (HSA) (Homo sapiens, UniProt P02768)
Details: carboxylate salt versus lactone

For `CC[C@@]1(O)C(=O)OCc2c1cc1n(c2=O)Cc2cc3ccccc3nc2-1` [CPT, Camptothecin], the “HSA affinity of carboxylate salt relative to binding of the lactone” value is listed as “exceeding 100 fold”.
